Article doi:10.1101/564625
No constants are given. Whether binding was seen depends on the method and setting. In cells and extracts the contact can be indirect. These calls come from enrichment with a bait or labelling near it, and not all partners need be listed. No binding means not detected with the bait.

Protein sequences, listed by entry. Tags and fused reporters are not part of them.
UniProt P17844: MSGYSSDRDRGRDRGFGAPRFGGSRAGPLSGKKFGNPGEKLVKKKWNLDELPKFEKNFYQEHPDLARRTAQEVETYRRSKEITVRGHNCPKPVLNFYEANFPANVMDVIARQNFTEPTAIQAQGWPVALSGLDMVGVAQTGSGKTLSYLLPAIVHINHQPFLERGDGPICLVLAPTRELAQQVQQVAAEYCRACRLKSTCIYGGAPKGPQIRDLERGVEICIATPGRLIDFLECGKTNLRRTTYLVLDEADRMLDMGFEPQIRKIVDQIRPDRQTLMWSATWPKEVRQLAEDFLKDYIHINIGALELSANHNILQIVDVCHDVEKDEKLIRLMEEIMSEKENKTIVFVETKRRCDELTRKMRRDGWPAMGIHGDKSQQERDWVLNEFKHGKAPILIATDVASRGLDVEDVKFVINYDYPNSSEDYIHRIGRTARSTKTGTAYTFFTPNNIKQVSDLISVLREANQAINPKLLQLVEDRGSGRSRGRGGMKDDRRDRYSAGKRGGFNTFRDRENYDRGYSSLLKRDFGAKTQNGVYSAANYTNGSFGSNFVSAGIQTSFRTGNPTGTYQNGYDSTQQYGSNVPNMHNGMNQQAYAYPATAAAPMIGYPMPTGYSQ
UniProt P35637: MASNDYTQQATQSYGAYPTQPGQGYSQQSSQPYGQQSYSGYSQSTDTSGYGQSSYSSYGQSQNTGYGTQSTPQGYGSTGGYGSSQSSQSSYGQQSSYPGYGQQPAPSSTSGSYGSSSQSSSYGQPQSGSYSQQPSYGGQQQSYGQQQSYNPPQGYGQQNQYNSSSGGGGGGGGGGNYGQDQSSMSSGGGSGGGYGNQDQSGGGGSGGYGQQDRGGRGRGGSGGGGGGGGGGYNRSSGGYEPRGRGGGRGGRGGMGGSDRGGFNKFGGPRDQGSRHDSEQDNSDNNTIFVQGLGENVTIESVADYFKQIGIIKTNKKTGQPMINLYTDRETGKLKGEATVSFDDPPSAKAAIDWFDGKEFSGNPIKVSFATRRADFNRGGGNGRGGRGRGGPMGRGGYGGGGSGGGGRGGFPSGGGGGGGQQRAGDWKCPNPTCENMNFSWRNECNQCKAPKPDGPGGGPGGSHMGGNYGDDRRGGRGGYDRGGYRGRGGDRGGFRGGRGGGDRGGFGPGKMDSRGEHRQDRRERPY
UniProt P05412: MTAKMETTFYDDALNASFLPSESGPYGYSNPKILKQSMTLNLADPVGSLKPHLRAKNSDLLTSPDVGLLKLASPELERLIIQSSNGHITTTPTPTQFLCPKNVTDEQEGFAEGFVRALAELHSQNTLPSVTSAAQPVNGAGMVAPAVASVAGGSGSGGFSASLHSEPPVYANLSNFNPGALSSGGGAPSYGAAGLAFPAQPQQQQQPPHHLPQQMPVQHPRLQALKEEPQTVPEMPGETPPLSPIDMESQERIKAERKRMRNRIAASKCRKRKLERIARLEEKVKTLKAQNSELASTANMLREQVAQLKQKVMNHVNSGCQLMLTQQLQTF
UniProt P09874: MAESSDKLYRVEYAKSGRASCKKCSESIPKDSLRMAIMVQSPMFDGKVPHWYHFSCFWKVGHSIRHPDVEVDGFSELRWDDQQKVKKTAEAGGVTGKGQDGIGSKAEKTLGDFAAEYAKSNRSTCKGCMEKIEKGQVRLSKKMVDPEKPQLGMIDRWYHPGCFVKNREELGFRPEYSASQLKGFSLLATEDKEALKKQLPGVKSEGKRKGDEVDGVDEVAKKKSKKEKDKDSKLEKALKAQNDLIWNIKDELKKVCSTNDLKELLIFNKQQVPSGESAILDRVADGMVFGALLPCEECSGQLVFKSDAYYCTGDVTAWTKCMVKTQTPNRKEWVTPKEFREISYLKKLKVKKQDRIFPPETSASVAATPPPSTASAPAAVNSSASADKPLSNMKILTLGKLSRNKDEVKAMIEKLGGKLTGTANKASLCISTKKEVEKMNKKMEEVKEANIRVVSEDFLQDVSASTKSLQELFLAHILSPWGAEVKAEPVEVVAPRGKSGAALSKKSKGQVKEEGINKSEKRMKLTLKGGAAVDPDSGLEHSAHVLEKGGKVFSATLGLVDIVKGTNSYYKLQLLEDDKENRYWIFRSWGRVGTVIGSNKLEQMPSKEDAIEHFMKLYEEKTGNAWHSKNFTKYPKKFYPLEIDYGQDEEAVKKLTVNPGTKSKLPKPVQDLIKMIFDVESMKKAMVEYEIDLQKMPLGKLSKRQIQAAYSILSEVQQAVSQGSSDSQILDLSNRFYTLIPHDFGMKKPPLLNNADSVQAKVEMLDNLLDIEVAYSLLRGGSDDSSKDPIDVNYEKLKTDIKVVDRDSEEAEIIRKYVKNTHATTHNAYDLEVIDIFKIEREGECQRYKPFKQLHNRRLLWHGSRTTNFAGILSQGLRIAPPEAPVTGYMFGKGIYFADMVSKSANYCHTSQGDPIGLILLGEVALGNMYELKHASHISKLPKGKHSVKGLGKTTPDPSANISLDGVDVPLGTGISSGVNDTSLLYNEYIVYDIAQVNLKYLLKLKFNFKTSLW
UniProt P46937: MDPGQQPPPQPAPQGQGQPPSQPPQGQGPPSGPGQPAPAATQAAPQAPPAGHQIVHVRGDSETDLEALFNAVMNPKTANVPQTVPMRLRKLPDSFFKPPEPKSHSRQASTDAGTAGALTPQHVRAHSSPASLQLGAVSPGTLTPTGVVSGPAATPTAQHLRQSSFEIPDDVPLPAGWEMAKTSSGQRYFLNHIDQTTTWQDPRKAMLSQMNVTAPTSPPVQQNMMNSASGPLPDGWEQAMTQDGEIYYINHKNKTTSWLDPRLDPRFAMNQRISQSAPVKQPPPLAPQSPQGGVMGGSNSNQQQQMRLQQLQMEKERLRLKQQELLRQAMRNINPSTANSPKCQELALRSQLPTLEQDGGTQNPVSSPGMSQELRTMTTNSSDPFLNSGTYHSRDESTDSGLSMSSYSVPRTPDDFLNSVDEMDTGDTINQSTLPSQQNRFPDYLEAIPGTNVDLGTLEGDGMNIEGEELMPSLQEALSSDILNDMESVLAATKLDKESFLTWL
UniProt Q9H7S9: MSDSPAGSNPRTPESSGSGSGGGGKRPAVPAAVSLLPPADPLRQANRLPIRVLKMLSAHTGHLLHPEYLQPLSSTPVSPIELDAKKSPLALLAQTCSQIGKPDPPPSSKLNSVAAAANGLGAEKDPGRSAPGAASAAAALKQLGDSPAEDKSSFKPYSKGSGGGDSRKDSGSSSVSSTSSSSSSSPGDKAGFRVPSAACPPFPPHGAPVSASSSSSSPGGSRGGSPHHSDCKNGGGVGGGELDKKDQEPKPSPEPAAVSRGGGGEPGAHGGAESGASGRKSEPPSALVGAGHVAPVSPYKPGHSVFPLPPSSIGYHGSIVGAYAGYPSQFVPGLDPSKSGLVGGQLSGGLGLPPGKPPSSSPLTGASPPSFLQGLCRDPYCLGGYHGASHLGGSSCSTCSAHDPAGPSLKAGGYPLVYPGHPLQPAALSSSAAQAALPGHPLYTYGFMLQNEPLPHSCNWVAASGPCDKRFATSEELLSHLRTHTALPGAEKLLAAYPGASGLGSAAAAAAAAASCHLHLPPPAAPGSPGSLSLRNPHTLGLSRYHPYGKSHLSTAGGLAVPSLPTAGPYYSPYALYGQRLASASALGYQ
UniProt P35222: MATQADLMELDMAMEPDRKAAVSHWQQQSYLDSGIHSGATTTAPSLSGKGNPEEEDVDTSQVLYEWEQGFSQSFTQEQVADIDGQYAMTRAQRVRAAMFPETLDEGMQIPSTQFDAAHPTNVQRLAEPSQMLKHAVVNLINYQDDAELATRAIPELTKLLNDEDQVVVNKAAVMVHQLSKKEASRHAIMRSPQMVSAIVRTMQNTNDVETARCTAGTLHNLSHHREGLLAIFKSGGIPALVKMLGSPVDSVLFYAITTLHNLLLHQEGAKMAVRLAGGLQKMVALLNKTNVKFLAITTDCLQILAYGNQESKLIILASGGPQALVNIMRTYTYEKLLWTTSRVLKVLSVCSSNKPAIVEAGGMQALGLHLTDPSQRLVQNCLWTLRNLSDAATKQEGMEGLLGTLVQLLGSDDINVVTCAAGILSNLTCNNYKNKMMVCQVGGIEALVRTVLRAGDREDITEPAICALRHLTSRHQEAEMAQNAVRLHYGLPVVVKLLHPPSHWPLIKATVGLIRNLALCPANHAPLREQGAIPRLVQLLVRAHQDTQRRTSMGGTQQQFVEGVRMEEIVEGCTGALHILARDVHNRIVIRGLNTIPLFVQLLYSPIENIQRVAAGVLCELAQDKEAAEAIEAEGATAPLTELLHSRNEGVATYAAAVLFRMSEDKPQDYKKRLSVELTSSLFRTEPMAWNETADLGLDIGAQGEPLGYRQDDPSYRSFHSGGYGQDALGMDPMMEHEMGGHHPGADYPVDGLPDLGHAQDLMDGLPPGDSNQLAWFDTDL

T1: BirA-FOXB2 (human) (UniProt Q5VYV0)
T1 sequence: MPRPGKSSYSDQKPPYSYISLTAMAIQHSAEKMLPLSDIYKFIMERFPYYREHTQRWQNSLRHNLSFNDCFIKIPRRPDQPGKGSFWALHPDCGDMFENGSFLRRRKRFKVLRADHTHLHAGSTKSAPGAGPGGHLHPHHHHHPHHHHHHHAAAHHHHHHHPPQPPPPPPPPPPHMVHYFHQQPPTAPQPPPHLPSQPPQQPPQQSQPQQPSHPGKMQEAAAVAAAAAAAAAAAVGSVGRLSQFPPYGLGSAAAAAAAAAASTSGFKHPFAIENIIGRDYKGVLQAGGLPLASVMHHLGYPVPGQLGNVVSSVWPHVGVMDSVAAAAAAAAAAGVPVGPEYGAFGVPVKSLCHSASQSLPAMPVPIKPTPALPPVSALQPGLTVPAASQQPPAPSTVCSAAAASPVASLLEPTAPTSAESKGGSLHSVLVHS


Target: T1, BirA-FOXB2 (human)
Assay: proximity labelling

Molecule	binding
DDX5 (from UniProt P17844 1-614)	binds
FUS (from UniProt P35637 1-526)	binds
JUN (from UniProt P05412 1-331)	binds
PARP1 (from UniProt P09874 1-1014)	binds
YAP1 (from UniProt P46937 1-504)	binds
ZNF703 (from UniProt Q9H7S9 1-590)	binds
endogenous β-catenin (293T) (from UniProt P35222 1-781)	no binding
hnRNP K (from UniProt P61978 1-463)	binds
NONO (protein, UniProt Q15233 1-471) MQSNKTFNLEKQNHTPRKHHQHHHQQQHHQQQQQQPPPPPIPANGQQASSQNEGLTIDLKNFRKPGEKTFTQRSRLFVGNLPPDITEEEMRKLFEKYGKAGEVFIHKDKGFGFIRLETRTLAEIAKVELDNMPLRGKQLRVRFACHSASLTVRNLPQYVSNELLEEAFSVFGQVERAVVIVDDRGRPSGKGIVEFSGKPAARKALDRCSEGSFLLTTFPRPVTVEPMDQLDDEEGLPEKLVIKNQQFHKEREQPPRFAQPGSFEYEYAMRWKALIEMEKQQQDQVDRNIKEAREKLEMEMEAARHEHQVMLMRQDLMRRQEELRRMEELHNQEVQKRKQLELRQEEERRRREEEMRRQQEEMMRRQQEGFKGTFPDAREQEIRMGQMAMGGAMGINNRGAMPPAPVPAGTPAPPGPATMMPDGTLGLTPPTTERFGQAATMEGIGAIGGTPPAFNRAAPGAEFAPNKRRRY	binds
